PubChem BioAssay AID504808, Drosophila RNAi Screening Center | 2011
Screen: 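Fly genes required to hold E2F transcription in check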 (primary screen). Cell system: Drosophila S2 cells. Knock-down reagent: long dsRNA against Drosophila genes. Measurement: 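Firefly luciferase driven by E2F sites, normalised to Renilla luciferase on the same minimal promoter, measured by plate reader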. Scale: E2F firefly: higher = more E2F reporter activity; Renilla normaliser: higher = more normaliser reporter signal. Rule for the call: 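Called active if the normalised E2F reporter went up by over 50%; the cutoff is arbitrary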.
The screen tested about 21,000 reagents; this is an unselected part of those that have a named target and a result. Of all reagents, 18 (0.084%) are marked active. 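Raw counts without plate normalisation, one of two replicates; the ratio scores behind the calls were not deposited.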 The record does not give: the amount of reagent, the time to read-out.

CG31008 [DRSC14028]: E2F firefly, rep 1 = 87226; Renilla normaliser, rep 1 = 2475; activity call = inactive
CG14110 [DRSC10113]: E2F firefly, rep 1 = 1.26e5; Renilla normaliser, rep 1 = 6696; activity call = inactive
mus304 (mutagen-sensitive 304) [DRSC11372]: E2F firefly, rep 1 = 1.76e5; Renilla normaliser, rep 1 = 8962; activity call = inactive
CG34249 (retired record) [DRSC09431]: E2F firefly, rep 1 = 1.34e5; Renilla normaliser, rep 1 = 3820; activity call = inactive
nom (numerous disordered muscles) [DRSC16389]: E2F firefly, rep 1 = 1.38e5; Renilla normaliser, rep 1 = 6681; activity call = inactive
CG17239 [DRSC00492]: E2F firefly, rep 1 = 1.64e5; Renilla normaliser, rep 1 = 5830; activity call = inactive
Art1 (Arginine methyltransferase 1) [DRSC16063]: E2F firefly, rep 1 = 70274; Renilla normaliser, rep 1 = 3121; activity call = inactive
CG32104 [DRSC10127]: E2F firefly, rep 1 = 1.10e5; Renilla normaliser, rep 1 = 5501; activity call = inactive
CG32104 [DRSC10128]: E2F firefly, rep 1 = 1.13e5; Renilla normaliser, rep 1 = 5376; activity call = inactive
Tfb1 (Transcription factor B1) [DRSC07082]: E2F firefly, rep 1 = 157; Renilla normaliser, rep 1 = 38; activity call = inactive
aux (auxilin) [DRSC12161]: E2F firefly, rep 1 = 78618; Renilla normaliser, rep 1 = 3843; activity call = inactive
Tig (Tiggrin) [DRSC03456]: E2F firefly, rep 1 = 1.40e5; Renilla normaliser, rep 1 = 5502; activity call = inactive
CG33281 [DRSC00421]: E2F firefly, rep 1 = 1.44e5; Renilla normaliser, rep 1 = 5456; activity call = inactive
CG15482 [DRSC02492]: E2F firefly, rep 1 = 1.03e5; Renilla normaliser, rep 1 = 4217; activity call = inactive
fzy (fizzy) [DRSC03534]: E2F firefly, rep 1 = 79583; Renilla normaliser, rep 1 = 3980; activity call = inactive
ghi (ghiberti) [DRSC08985]: E2F firefly, rep 1 = 1.38e5; Renilla normaliser, rep 1 = 4792; activity call = inactive

Part of the list above, set out differently:
CG15482 [DRSC02492]
- E2F firefly, rep 1: 1.03e5
- Renilla normaliser, rep 1: 4217
- activity call: inactive

fzy (fizzy) [DRSC03534]
- E2F firefly, rep 1: 79583
- Renilla normaliser, rep 1: 3980
- activity call: inactive

ghi (ghiberti) [DRSC08985]
- E2F firefly, rep 1: 1.38e5
- Renilla normaliser, rep 1: 4792
- activity call: inactive

The listing continues.
CG8399 [DRSC07163]: E2F firefly, rep 1 = 68845; Renilla normaliser, rep 1 = 3019; activity call = inactive
Lgr1 (Leucine-rich repeat-containing G protein-coupled receptor 1) [DRSC16675]: E2F firefly, rep 1 = 1.38e5; Renilla normaliser, rep 1 = 9097; activity call = inactive
TyrR (Tyramine receptor) [DRSC16242]: E2F firefly, rep 1 = 1.25e5; Renilla normaliser, rep 1 = 8410; activity call = inactive
CG17167 [DRSC20902]: E2F firefly, rep 1 = 1.34e5; Renilla normaliser, rep 1 = 4028; activity call = inactive
CG17167 [DRSC20903]: E2F firefly, rep 1 = 1.27e5; Renilla normaliser, rep 1 = 4239; activity call = inactive
Eglp1 (Entomoglyceroporin 1) [DRSC04502]: E2F firefly, rep 1 = 83279; Renilla normaliser, rep 1 = 3265; activity call = inactive
nrv1 (nervana 1) [DRSC03382]: E2F firefly, rep 1 = 88722; Renilla normaliser, rep 1 = 3757; activity call = inactive
Usp1 (Ubiquitin specific protease 1) [DRSC14155]: E2F firefly, rep 1 = 2165; Renilla normaliser, rep 1 = 948; activity call = inactive
CG31826 [DRSC03357]: E2F firefly, rep 1 = 1.10e5; Renilla normaliser, rep 1 = 5014; activity call = inactive
rnh1 (ribonuclease H1) [DRSC07673]: E2F firefly, rep 1 = 1.43e5; Renilla normaliser, rep 1 = 4686; activity call = inactive
Xxylt (Xyloside xylosyltransferase) [DRSC04107]: E2F firefly, rep 1 = 77741; Renilla normaliser, rep 1 = 3144; activity call = inactive
COX7B (Cytochrome c oxidase subunit 7B) [DRSC10895]: E2F firefly, rep 1 = 1.89e5; Renilla normaliser, rep 1 = 9986; activity call = inactive
CG14096 [DRSC10099]: E2F firefly, rep 1 = 1.51e5; Renilla normaliser, rep 1 = 7701; activity call = inactive
CG7220 [DRSC05235]: E2F firefly, rep 1 = 1.36e5; Renilla normaliser, rep 1 = 5374; activity call = inactive
CG7220 [DRSC07018]: E2F firefly, rep 1 = 1.55e5; Renilla normaliser, rep 1 = 5735; activity call = inactive
CG11068 [DRSC19369]: E2F firefly, rep 1 = 1.44e5; Renilla normaliser, rep 1 = 6136; activity call = inactive
DAAM (Dishevelled Associated Activator of Morphogenesis) [DRSC18479]: E2F firefly, rep 1 = 51166; Renilla normaliser, rep 1 = 2815; activity call = inactive
cup [DRSC03516]: E2F firefly, rep 1 = 86204; Renilla normaliser, rep 1 = 3258; activity call = inactive
CG33333 [DRSC13233]: E2F firefly, rep 1 = 89307; Renilla normaliser, rep 1 = 2582; activity call = inactive
Nepl14 (Neprilysin-like 14) [DRSC15631]: E2F firefly, rep 1 = 1.49e5; Renilla normaliser, rep 1 = 5828; activity call = inactive
